Library screening results

Protein sequences, listed by entry. Tags and fused reporters are not part of them.
UniProt E9BF75, entry or part of it: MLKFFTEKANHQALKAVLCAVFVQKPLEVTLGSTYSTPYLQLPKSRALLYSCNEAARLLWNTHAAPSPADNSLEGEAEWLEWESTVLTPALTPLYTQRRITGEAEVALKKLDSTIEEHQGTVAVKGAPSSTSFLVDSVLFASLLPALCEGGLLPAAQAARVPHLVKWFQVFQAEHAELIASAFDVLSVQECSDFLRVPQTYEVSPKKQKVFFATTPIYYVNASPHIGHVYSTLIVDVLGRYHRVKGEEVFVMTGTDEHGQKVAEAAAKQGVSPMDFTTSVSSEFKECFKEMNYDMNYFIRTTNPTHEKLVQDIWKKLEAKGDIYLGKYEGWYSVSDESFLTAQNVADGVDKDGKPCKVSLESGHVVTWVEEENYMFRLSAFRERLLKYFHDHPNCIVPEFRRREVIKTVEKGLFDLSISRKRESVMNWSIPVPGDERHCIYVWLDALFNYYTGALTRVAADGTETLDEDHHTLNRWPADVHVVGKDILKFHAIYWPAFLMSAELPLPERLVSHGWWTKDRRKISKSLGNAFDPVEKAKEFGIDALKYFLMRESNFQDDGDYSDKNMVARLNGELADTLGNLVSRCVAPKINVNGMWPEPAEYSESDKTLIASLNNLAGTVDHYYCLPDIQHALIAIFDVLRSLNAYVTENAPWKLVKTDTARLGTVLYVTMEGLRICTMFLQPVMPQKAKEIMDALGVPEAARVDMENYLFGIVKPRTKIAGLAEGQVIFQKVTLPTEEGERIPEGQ

Results are percentages, as filed. The record does not define 0% and 100%; most values in the screen are far below 50% and negative numbers occur (in some assays of this library far below -100). Compounds were drawn at random from those tested, without regard to their results.

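Primary screen of methionyl-tRNA synthetase; the read-out is not stated. Target: Methionyl-tRNA synthetase (putative), Leishmania donovani (UniProt E9BF75). The test concentration is not given. The values are filed as inhibition. Of about 68,000 compounds tested this way, about 24 (0.035%) reached 50% or more in at least one test.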

| # | compound | inhibition |
|---|---|---|
| 1 | `Cc1nsc(N2CCN(CC(=O)NCc3cccnc3)CC2)n1` | -11.08% |
| 2 | `O=C(NCc1ccccn1)N(Cc1ccc(F)cc1F)C1CC1` | 5.164% |
| 3 | `COc1ccccc1C1Cn2c(C)cnc2CN1Cc1ccc(C)nc1` (stereo not given) | 15.19% |
| 4 | `O=C(c1ccno1)N1CCOC[C@H](Oc2ccc(C(F)(F)F)cc2)C1` | 15.93% |
| 5 | `Cc1nc(C)c(C(=O)N2CCCN(Cc3cnn(C)c3)CC2)s1` | 3.093% |
| 6 | `CCOC(=O)c1sc(NC(=O)COC)c(C#N)c1C` | -29.03% |
| 7 | `Cc1cccc(CN(Cc2cccnc2)C2CC(C)(C)NC(C)(C)C2)n1` | 12% |
| 8 | `Cc1cnn(CC2CN(Cc3nccn3CC(F)(F)F)CCO2)c1` (stereo not given) | 9.456% |
| 9 | `Cc1nc(C2CCCNC2)cc(N(C)CCc2cn[nH]c2)n1` (stereo not given) | 9.441% |
| 10 | `CO[C@@H]1CCN(Cc2ccoc2)C[C@@H]1Cc1ccccc1` | 12.64% |
| 11 | `CN1C[C@@H](F)[C@@H](OCc2nc3ccc(C#N)cc3[nH]2)C1` | 12.09% |
| 12 | `Nc1cc(-c2cncnc2C2CCN(C(=O)c3ccccc3)C2)ccn1` (stereo not given) | 3.675% |
| 13 | `COc1ncc(NCc2ccsc2)cc1C(N)=O` | 2.514% |
| 14 | `CC(C)(CNC(=O)Nc1ccc(S(=O)(=O)C(F)F)cc1)N1CCOCC1` | 0.8523% |
| 15 | `CCCn1ccnc1CN1C[C@@H](NC(C)=O)[C@H](c2ccc(C)cc2)C1` | 12.85% |
| 16 | `Cc1ccsc1CCNC(=O)CCC(=O)NC1CCCC1` | 18.82% |
| 17 | `C=C(C)C(=O)N1CCC(C(=O)c2cc(C)cnc2N)CC1` | 8.014% |
| 18 | `Cc1cc(C2CCCN(C(=O)COc3ccc(F)cc3F)C2)n[nH]1` (stereo not given) | 10.82% |
| 19 | `CC(NC(=O)C1=NN(C)C(=O)CC1)c1ccc(F)cc1F` (stereo not given) | 0.4926% |
| 20 | `CCOCCn1nc(C)cc1C(=O)N(C)Cc1cccc2ncccc12` | 14.18% |
| 21 | `Cc1cccc(NC(=O)[C@@H]2CCCN2CC(=O)Nc2ccccc2)n1` | 9.019% |
| 22 | `CC(C)CC(O)C1CCN(Cc2cnc(-c3cccs3)nc2)CC1` (stereo not given) | 11.15% |
| 23 | `O=C(C1CCCN1Cc1nc(-c2ccco2)no1)N1CCSCC1` (stereo not given) | 8.659% |
| 24 | `CCCc1ccc(OCCNCc2ccco2)c(OC)c1` | 4.902% |
| 25 | `COc1ccccc1OCCN1CCCC(c2cc(C(N)=O)[nH]n2)C1` (stereo not given) | 13.99% |
| 26 | `COc1ccc(Oc2ncccc2C(N)=O)cc1CN1CCCC1` | 14.07% |
| 27 | `CCCc1ccc(CN2CCC3(CCC(=O)N(CCCOC)C3)CC2)o1` | 12.47% |
| 28 | `O=C(c1ccsc1)N1C[C@H](N2CCOCC2)[C@@H]2OCCC[C@@H]21` | 13.87% |
| 29 | `Cc1nn(C)c2nc(NC(C)c3nnn[nH]3)sc12` (stereo not given) | 2.35% |
| 30 | `O=C1CC(NCc2ncc[nH]2)CN1CCc1cccc(Cl)c1` (stereo not given) | 6.65% |
| 31 | `Cc1cnn(CCNCc2nc(-c3ccsc3)oc2C)c1` | 17.12% |
| 32 | `Cc1cccc(CN2CCOCC3(CCN(C4CCOCC4)C3)C2)c1` (stereo not given) | 9.804% |
| 33 | `COc1c(C)cnc(CN2CCC(C(=O)N(C)C)CC2)c1C` | 11.74% |
| 34 | `COc1ccc(C)cc1NC(=O)CNc1ccn(CC(N)=O)n1` | 15.36% |
| 35 | `Cc1cc(C(=O)N2CCCC(c3cc(C(F)(F)F)[nH]n3)C2)on1` (stereo not given) | 9.497% |
| 36 | `CCOc1ccc(SCCS(=O)(=O)CC)cc1` | 19.77% |
| 37 | `NC(=O)C1CCCN(S(=O)(=O)c2cnn(-c3ccccc3)c2)C1` (stereo not given) | 10.14% |
| 38 | `Cc1ccc2c(c1)C(NCc1nccn1Cc1ccccc1)CCCO2` (stereo not given) | 8.696% |
| 39 | `Cc1ccc(S(=O)(=O)CCC(=O)N(C)Cc2cnn(C)c2)cc1` | 1.198% |
| 40 | `O=C(CN1CCCS1(=O)=O)NCCOc1ccc2c(c1)CCC2` | 4.294% |
| 41 | `Cc1cccc(CNC(=O)c2cccnc2N)c1` | -1.143% |
| 42 | `COC(=O)N1CCN(Cc2ccccc2Cl)CC1` | 5.128% |
| 43 | `CC(C)(NCC(=O)N1CCCC(C(N)=O)C1)c1ccc(Cl)cc1` (stereo not given) | 16.16% |
| 44 | `CCN(CCNCc1ccc(C#N)cc1)C1CC1` | 5.541% |
| 45 | `CNS(=O)(=O)c1cccc(CNC(=O)c2cnn(C)c2C)c1` | 3.136% |
| 46 | `O=C(c1ccccn1)N1CCC2(CNS(=O)(=O)c3cnccc3O2)C1` (stereo not given) | 6.857% |
| 47 | `Cc1nc2ccccc2c(=O)n1CCC(=O)N1CCSCC1` | 15.31% |
| 48 | `CC(O)c1cccc(Nc2nc(NCCO)c3ccccc3n2)c1` (stereo not given) | 7.082% |
| 49 | `COc1cc(C2SCC(=O)Nc3[nH]ncc32)c(OC)c2c1OCO2` (stereo not given) | 13.19% |
| 50 | `CCn1cc(CN2CCCCC2CCn2ccnc2C)cc1C#N` (stereo not given) | 15.08% |
| 51 | `Cc1noc([C@@]23CCO[C@@H]2CCN(C(=O)c2c(C)noc2C)C3)n1` | 9.446% |
| 52 | `CC(OCC1CC1)C(=O)N1CCCN(c2cccnn2)CC1` (stereo not given) | 4.261% |
| 53 | `Cc1ccc(NC(=O)NCC(c2cnn(C)c2)N(C)C)c(C)c1` (stereo not given) | 10.77% |
| 54 | `CS(=O)(=O)NCCC(=O)Nc1cnn(-c2ccccc2Cl)c1` | 18.44% |
| 55 | `Cc1ccccc1N1CCN(C(=O)c2cnc(N(C)C)nc2C)C(C)C1` (stereo not given) | 3.297% |
| 56 | `CCc1sc(-c2nnc(CNC(C)Cn3cc(C)cn3)o2)cc1C` (stereo not given) | 1.319% |
| 57 | `CCNc1ccnc(NCC2(N(C)C)CCOCC2)n1` | 6.137% |
| 58 | `CCc1ccc(-c2noc(Cn3nc(C(N)=O)ccc3=O)n2)cc1` | 8.13% |
| 59 | `Cc1cccc(=O)n1CCCNc1ncnc2c1CCNCC2` | 3.759% |
| 60 | `CN(Cc1cccc(F)c1)C(=O)CS(=O)(=O)Cc1c(Cl)cccc1Cl` | 1.796% |
| 61 | `O=C(NCCc1csc(-c2cccnc2)n1)c1cnn2c1CCCC2` | 9.851% |
| 62 | `C[C@@H]1CN(C(=O)c2cc(COc3ccc4c(c3)OCO4)[nH]n2)C[C@H](C)O1` | 9.22% |
| 63 | `O=C(COc1ccc(F)cc1)N1CCCSCC1CN1CCOCC1` (stereo not given) | 1.439% |
| 64 | `CC(C)N(C)Cc1cnc2n1CCN(Cc1cccc(F)c1)C2` | 8.168% |
| 65 | `Cc1nc(CN2CCC(c3cc(N4CCCC4)ncn3)CC2)cs1` | 4.802% |
| 66 | `Cc1nccc(NCc2cncc3c2CCN(CC2CC2)C3)n1` | 16.54% |
| 67 | `Cc1nc(-c2cnn(C)c2)nc2c1CN(C(=O)c1cccnc1)CC2` | 8.377% |
| 68 | `COc1ccc(NCc2nc(=O)n(CCC(C)C)[nH]2)cc1` | 15.49% |
| 69 | `CCNc1nnc(SCC(=O)N2CCN(Cc3ccc(Cl)s3)CC2)s1` | 5.435% |
| 70 | `CCOCC1CN(C(=O)c2cnoc2C)Cc2cn(CC3CC3)nc21` (stereo not given) | 16.3% |
| 71 | `O=C(C1CCN(Cc2nc(-c3ccco3)no2)CC1)N1CCCC1` | 8.101% |

5 of the entries, repeated:

* O=C(CN1CCCS1(=O)=O)NCCOc1ccc2c(c1)CCC2 | 4.294%
* COc1ccc(NCc2nc(=O)n(CCC(C)C)[nH]2)cc1 | 15.49%
* Cc1cnn(CCNCc2nc(-c3ccsc3)oc2C)c1 | 17.12%
* NC(=O)C1CCCN(S(=O)(=O)c2cnn(-c3ccccc3)c2)C1 (stereo not given) | 10.14%
* CO[C@@H]1CCN(Cc2ccoc2)C[C@@H]1Cc1ccccc1 | 12.64%

Measurements from “University of Dundee, Small-Polar-MMV Screening Library” (2021), ChEMBL document CHEMBL3988442.